According to the supplement of paper PMC3334620:
In all, about 33,000 sequences were measured (“E-score (-0.5 to 0.5)”: median about -8e-05, highest 2% from about 0.23 on). The list shows a part of the results.

Each sequence was assayed against T1, Nrg2 (UniProt P38082) (assay: PBM E-score (8-mer binding enrichment) (E-score (-0.5 to 0.5)); higher = stronger / more preferred TF binding). Details: protein concentration: 100 nM; construct: GST-full length.
T1 sequence: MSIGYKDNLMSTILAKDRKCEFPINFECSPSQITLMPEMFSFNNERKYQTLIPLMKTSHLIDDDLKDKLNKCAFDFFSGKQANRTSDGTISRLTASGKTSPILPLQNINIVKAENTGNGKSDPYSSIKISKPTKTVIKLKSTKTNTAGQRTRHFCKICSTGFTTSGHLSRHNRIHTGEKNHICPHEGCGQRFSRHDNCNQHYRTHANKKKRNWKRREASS
Description: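 Universal 'all 10-mer' protein binding microarrays (Agilent AMADID 015681) probed with GST-tagged S. cerevisiae TFs (full-length or DBD) made by in vitro transcription/translation (PURExpress), about 100-200 nM. Bound TF was detected with fluorescent anti-GST. Each ungapped 8-mer (which stands for itself and its reverse complement) is scored by the PBM enrichment score (E-score), a modified Wilcoxon-Mann-Whitney statistic from -0.5 to +0.5, computed with the Universal PBM Analysis Suite. Scale: above 0.35 generally sequence-specific binding.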
In the case of CGATGGTA, the “PBM E-score” value is reported as -0.0259.
ATTTTTAA was tested, and the “PBM E-score” value was 0.163.
In the case of CAAAGGAC, the “PBM E-score” value is reported as -0.169.
With GCAACACC the “PBM E-score” value was 0.109.
For CCACCCAA, the “PBM E-score” value was -0.0735.
In the case of GACGATGC, the “PBM E-score” value is reported as -0.00484.
In the case of AATAACGG, the “PBM E-score” value is reported as 0.18.
With TCGCGAGA the “PBM E-score” value was 0.194.
AGCTACGG was tested, and the “PBM E-score” value was -0.0601.
GCCGTTAC was tested, and the “PBM E-score” value was -0.0346.
ATAAGGAG was tested, and the “PBM E-score” value was -0.00846.
In the case of CTCCTGTC, the “PBM E-score” value is reported as -0.17.
In the case of GGTGGCAC, the “PBM E-score” value is reported as -0.062.
CTCCATCA was tested, and the “PBM E-score” value was -0.00292.
For AATGGGCA, the “PBM E-score” value was 0.0653.
In the case of CAACTATC, the “PBM E-score” value is reported as 0.0616.
With GCCACAGA the “PBM E-score” value was 0.0462.
With CGAAACCG the “PBM E-score” value was 0.0324.
For AAAAATGA, the “PBM E-score” value was 0.0139.
In the case of CAACAAGG, the “PBM E-score” value is reported as 0.186.
In the case of CTGTGCAC, the “PBM E-score” value is reported as -0.084.
In the case of AGCAACGA, the “PBM E-score” value is reported as 0.0639.
With ACCCTGAA the “PBM E-score” value was 0.319.
GTTCGCTA was tested, and the “PBM E-score” value was 0.00588.
ATTCATGC was tested, and the “PBM E-score” value was 0.203.
GAGCAGGA was tested, and the “PBM E-score” value was 0.0341.
In the case of GGCAAGAA, the “PBM E-score” value is reported as 0.0574.
GGGGCACA was tested, and the “PBM E-score” value was -0.0349.
In the case of GATACGCA, the “PBM E-score” value is reported as 0.0695.
With GTTCTTTA the “PBM E-score” value was 0.157.
For ACACAGTG, the “PBM E-score” value was 0.0141.
In the case of TAAGAACA, the “PBM E-score” value is reported as 0.26.
In the case of GATCAACC, the “PBM E-score” value is reported as 0.0908.
In the case of ATTGAGGA, the “PBM E-score” value is reported as -0.0335.
In the case of AAGGGTGG, the “PBM E-score” value is reported as -0.127.
For AGCCACCA, the “PBM E-score” value was -0.0493.
In the case of ATATATAG, the “PBM E-score” value is reported as 0.204.
With TCTAATAA the “PBM E-score” value was 0.0659.
With ACGTATGC the “PBM E-score” value was -0.138.
With CTGGGATA the “PBM E-score” value was -0.0685.
With AATGATGA the “PBM E-score” value was 0.203.
In the case of TCGTTTAA, the “PBM E-score” value is reported as 0.0943.
In the case of AGAATTTA, the “PBM E-score” value is reported as 0.14.
With TCGCGACA the “PBM E-score” value was 0.184.
AAGCATGA was tested, and the “PBM E-score” value was -0.0248.
For CTTACCGA, the “PBM E-score” value was -0.0475.
CCAGGGGA was tested, and the “PBM E-score” value was -0.0803.
GGCGATAC was tested, and the “PBM E-score” value was -0.0646.
TCGCAAAA was tested, and the “PBM E-score” value was 0.107.
In the case of TCGCTCAA, the “PBM E-score” value is reported as 0.146.
For ATATCATC, the “PBM E-score” value was 0.0451.
In the case of CTAAACCA, the “PBM E-score” value is reported as -0.179.
In the case of AATGTGAA, the “PBM E-score” value is reported as 0.0193.
In the case of ACGGATTA, the “PBM E-score” value is reported as -0.057.
For TCGTACCA, the “PBM E-score” value was -0.00666.
For ACTGCGCT, the “PBM E-score” value was -0.0217.
CCAGTCTC was tested, and the “PBM E-score” value was -0.186.
In the case of GCCAAGCC, the “PBM E-score” value is reported as -0.0234.
For CCACCACG, the “PBM E-score” value was 0.00854.
With AACCTCAC the “PBM E-score” value was -0.0614.
For ACTCTGGA, the “PBM E-score” value was 0.0835.
CTGAATTC was tested, and the “PBM E-score” value was 0.0162.
In the case of CCTAGAAG, the “PBM E-score” value is reported as -0.123.
For ATGTTCCA, the “PBM E-score” value was 0.058.
In the case of AGGCTTCA, the “PBM E-score” value is reported as -0.242.
In the case of ACTGGAGG, the “PBM E-score” value is reported as 0.15.
For AGATAGTG, the “PBM E-score” value was 0.174.
GCCGCGCC was tested, and the “PBM E-score” value was -0.0901.
GCTACCAA was tested, and the “PBM E-score” value was -0.226.
For AAAGCCTG, the “PBM E-score” value was -0.0689.
For GCGTTGCA, the “PBM E-score” value was 0.0628.
For TAGGCCTA, the “PBM E-score” value was -0.0268.
For GCCTCGAA, the “PBM E-score” value was 0.067.
For ATAGGGAC, the “PBM E-score” value was 0.139.
With CAGACAAC the “PBM E-score” value was 0.178.
With ATGTAACC the “PBM E-score” value was -0.127.
CCTACTGA was tested, and the “PBM E-score” value was 0.0413.
For CTCTTTCC, the “PBM E-score” value was -0.193.
In the case of ACACGGAG, the “PBM E-score” value is reported as 0.00325.
With ACTCGGTG the “PBM E-score” value was -0.0271.
AAACTTGG was tested, and the “PBM E-score” value was -0.0266.
In the case of ATAGCCTC, the “PBM E-score” value is reported as -0.121.
With TGTCAACA the “PBM E-score” value was -0.0446.
GGGTTTCA was tested, and the “PBM E-score” value was 0.126.
In the case of GCCGGATA, the “PBM E-score” value is reported as 0.0712.
With CGCGCTAC the “PBM E-score” value was 0.117.
